Laboratory results: PubChem BioAssay AID1117269 (University of Michigan, 2014)
Screen: 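Kinome-wide knockdown screen for regulators of TGF-beta reporter output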 (primary screen). System: human A549 lung cancer and 1833 breast cancer (MDA-MB-231-derived) cell lines carrying a stable BTR luciferase reporter. Reagent: siRNA pool against human genes. Time to read-out: 72 h after transfection, then 1 h TGF-beta before the read. Conditions: TGF-beta 10 ng/mL added one hour before luciferin and read-out. Read-out: 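Live-cell BTR luciferase signal at 72 h after transfection and 1 h of TGF-beta at 10 ng/mL, fold versus scrambled siRNA, triplicate mean for each line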. Direction: fold over scrambled siRNA, A549 and fold over scrambled siRNA, 1833: higher = more reporter light, weaker TGF-beta receptor signalling. Active means: 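Active if a hit in A549 or 1833; a line's hit exceeds an upper quartile-based cutoff on mean log fold values, applied per plate and across the whole screen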. Calls: active = hit in at least one line; inactive = hit in neither line.
The whole screen tested 714 reagents; this is a random part of them. 49 of all reagents (6.9%) count as active. 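Active means a hit in at least one line; per-line hit columns show which; some siRNA pools appear more than once.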 A number with no mark means an inactive call. The record does not give: the amount of reagent.

FGFRL1
- fold over scrambled siRNA, A549: 2.49
- fold over scrambled siRNA, 1833: 9.09
- hit in A549: not a hit in A549
- hit in 1833: not a hit in 1833

CDKL3
- fold over scrambled siRNA, A549: 3.76
- fold over scrambled siRNA, 1833: 6.27
- hit in A549: not a hit in A549
- hit in 1833: not a hit in 1833

SGK3
- fold over scrambled siRNA, A549: 4.9
- fold over scrambled siRNA, 1833: 8.14
- hit in A549: not a hit in A549
- hit in 1833: not a hit in 1833

PRKX
- fold over scrambled siRNA, A549: 4.86
- fold over scrambled siRNA, 1833: 5.99
- hit in A549: not a hit in A549
- hit in 1833: not a hit in 1833

PRKCD
- fold over scrambled siRNA, A549: 0.429
- fold over scrambled siRNA, 1833: 3.1
- hit in A549: not a hit in A549
- hit in 1833: not a hit in 1833

PRKCI
- fold over scrambled siRNA, A549: 1
- fold over scrambled siRNA, 1833: 1.48
- hit in A549: not a hit in A549
- hit in 1833: not a hit in 1833

TLK1
- fold over scrambled siRNA, A549: 2.29
- fold over scrambled siRNA, 1833: 3.48
- hit in A549: not a hit in A549
- hit in 1833: not a hit in 1833

SHPK
- fold over scrambled siRNA, A549: 1.86
- fold over scrambled siRNA, 1833: 1.38
- hit in A549: not a hit in A549
- hit in 1833: not a hit in 1833

RIPK4
- fold over scrambled siRNA, A549: 1.62
- fold over scrambled siRNA, 1833: 1.48
- hit in A549: not a hit in A549
- hit in 1833: not a hit in 1833

BRD2
- fold over scrambled siRNA, A549: 2.11
- fold over scrambled siRNA, 1833: 8.2
- hit in A549: not a hit in A549
- hit in 1833: not a hit in 1833

PIK3C2B
- fold over scrambled siRNA, A549: 2.82
- fold over scrambled siRNA, 1833: 1.85
- hit in A549: not a hit in A549
- hit in 1833: not a hit in 1833

TYK2
- fold over scrambled siRNA, A549: 1.57
- fold over scrambled siRNA, 1833: 6.84
- hit in A549: not a hit in A549
- hit in 1833: not a hit in 1833

TK2
- fold over scrambled siRNA, A549: 1.81
- fold over scrambled siRNA, 1833: 3.52
- hit in A549: not a hit in A549
- hit in 1833: not a hit in 1833

PAPSS1
- fold over scrambled siRNA, A549: 3.14
- fold over scrambled siRNA, 1833: 6.52
- hit in A549: not a hit in A549
- hit in 1833: not a hit in 1833
